Further values from the same series stand in other lists.
System: library of 8,380 IKZF3 degrons (ZF-eGFP/mCherry reporter) in Jurkat cells
Assay: Pooled library screen (FACS, NGS, limma voom LogFC of positive vs negative read counts)
Type: cell-based, human
Experimental: A library of 8,380 IKZF3 degrons was cloned into pLVX-Sprout to create the eGFP/mCherry protein degradation reporter plasmid pool. A lentivirus pool was then generated using the Lenti-X lentiviral vector production method.
Jurkat cells were transduced at a multiplicity of infection of <0.3 with the lentivirus vector library in order to maximise the number of cells with a single integration. Transductions were carried out in 6 well TC-treated cell culture dishes (Falcon) with 3×10^6 cells per well. Cells were incubated for 2 days at 37° C. and 5% CO2 before the supernatant was removed and replaced with fresh media. 6 days post-transduction, mCherry+ cells were isolated via FACS using the FACS Aria Fusion (BD) in a buffer containing PBS (Gibco), 2 mM EDTA (Gibco), 25 mM HEPES (Sigma) and 1% BSA (Sigma). 8 days later, cells were treated with DMSO or a thalidomide analog for 18 hours at 37° C. and 5% CO2. mCherry+GFPlow and NOT(mCherry+GFPlow) cells were sorted by FACS using the FACS Aria Fusion (BD). DMSO treated cells were used to set the mCherry+GFPlow gate and dead cells were excluded from sorting by staining cells with 1 μg/mL DAPI (ThermoFisher). gDNA was isolated using the Maxwell RSC 48 (Promega). gDNA from cells that were unsorted and untreated were also isolated to determine the library representation on the day of compound treatment. Throughout the screen >600× coverage of the library was maintained. 3 biological replicates were carried out with a new transduction taking place each time.
A two-step PCR was used where the first PCR (PCR1) amplified the integrated degron sequence from gDNA and the second PCR (PCR2) added Illumina adaptors and barcodes to permit multiplexing. See Supp F for PCR1 and PCR2 primers. Q5 Hot Start High-Fidelity 2× Master Mix (New England Biolabs) was used for both PCRs. Sufficient gDNA was amplified in PCR1 in order to maintain >600× coverage and amplicons were purified using solid phase reversible immobilization (SPRI) beads (Beckman Coulter). Purified PCR1 products were analysed on the Tapestation 4200 (Agilent) to confirm purity prior to proceeding to PCR2. Sufficient PCR1 product was amplified in PCR2 in order to maintain >600× coverage and amplicons were run on a 2% agarose TAE gel. Target bands were excised and purified using the NucleoSpin Gel and PCR Clean-up Kit (Machery Nagel). Amplicons were analysed on the Tapestation 4200 and quantified using Qubit dsDNA HS kit (ThermoFisher). PCR products were pooled and sequenced as paired-reads on the NovaSeq (Illumina) using a SP2 200 cycles kit (Illumina).
Count distributions, percentage of read mapping, library coverage and replicate correlation per sample were assessed for QC purposes.
To carry out the library screen, we used the same plasmid construct as in our earlier flow cytometry assays, but pooling all 8,380 mutants together into one Jurkat population, ensuring a copy number of one plasmid per cell (FIG. 4B). […] These GFP-negative cells were then separated from the remaining GFP-positive population using fluorescence activated cell sorting (FACS). These two populations were then sequenced and the relative abundance of every mutant in both populations compared to provide a log FC value for each mutant sequence. This value indicated how frequently a sequence is observed in the GFP-negative population relative to the GFP-positive population, and therefore how effective a degron it is for that particular IMID compound.

Q: O=C1CCC(N2C(=O)c3ccccc3C2=O)C(=O)N1 (centres unmarked) [A32, 2-(2,6-dioxopiperidin-3-yl)isoindoline-1,3-dione] was tested. Which A32_logFC (Degron-ID 3113, SEQ ID NO 47, 46F_47Q_49P_50V_52G_53A_54Q_55F_67L) did it give?
A: 3.59

Q: What about the A32_logFC (Degron-ID 3114, SEQ ID NO 38, 46F_47Q_49P_50V_52G_53A_54R_55F_67L) of the same compound?
A: 3.633

Q: And the A32_logFC (Degron-ID 3115, SEQ ID NO 45, 46F_47Q_49P_50V_52G_53A_54S_55F_67L)?
A: 3.602

Q: What about the A32_logFC (Degron-ID 3117, SEQ ID NO 17, 46F_47Q_49P_50V_52G_53A_54V_55F_67L) of the same compound?
A: 3.746

Q: What about the A32_logFC (Degron-ID 3232, SEQ ID NO 40, 46F_47R_49E_50V_52G_53A_54P_55F_67L) of the same compound?
A: 3.617

Q: And the A32_logFC (Degron-ID 3672, SEQ ID NO 170, 46F_47T_49E_50I_52G_53A_54P_55F_67L)?
A: 3.17

Q: And the A32_logFC (Degron-ID 3674, SEQ ID NO 147, 46F_47T_49E_50I_52G_53A_54R_55F_67L)?
A: 3.233

Q: What about the A32_logFC (Degron-ID 3715, SEQ ID NO 187, 46F_47T_49E_50V_52G_53A_54S_55F_67L) of the same compound?
A: 3.121

Q: What about the A32_logFC (Degron-ID 3792, SEQ ID NO 140, 46F_47T_49P_50I_52G_53A_54P_55F_67L) of the same compound?
A: 3.253

Q: What about the A32_logFC (Degron-ID 3795, SEQ ID NO 149, 46F_47T_49P_50I_52G_53A_54S_55F_67L) of the same compound?
A: 3.228

Q: And the A32_logFC (Degron-ID 3900, SEQ ID NO 180, 46F_47V_49E_50I_52G_53A_54A_55F_67L)?
A: 3.155

Q: And the A32_logFC (Degron-ID 3905, SEQ ID NO 151, 46F_47V_49E_50I_52G_53A_54G_55F_67L)?
A: 3.227

Q: And the A32_logFC (Degron-ID 3912, SEQ ID NO 33, 46F_47V_49E_50I_52G_53A_54P_55F_67L)?
A: 3.651

Q: What about the A32_logFC (Degron-ID 3913, SEQ ID NO 152, 46F_47V_49E_50I_52G_53A_54Q_55F_67L) of the same compound?
A: 3.224

Q: What about the A32_logFC (Degron-ID 4072, SEQ ID NO 162, 46F_47V_49P_50V_52G_53A_54P_55F_67L) of the same compound?
A: 3.195

Q: What about the A32_logFC (Degron-ID 6327, SEQ ID NO 166, 46F_47Q_49P_50I_52G_53R_54I_55F_67L) of the same compound?
A: 3.177

Q: What about the A32_logFC (Degron-ID 6495, SEQ ID NO 189, 46L_47C_49P_50I_52G_53F_54S_55C_67L) of the same compound?
A: 3.115

Q: What about the A32_logFC (Degron-ID 6499, SEQ ID NO 144, 46L_47C_49P_50I_52G_53F_54Y_55C_67L) of the same compound?
A: 3.24

Q: And the A32_logFC (Degron-ID 6520, SEQ ID NO 171, 46L_47E_49P_50I_52G_53F_54A_55C_67L)?
A: 3.17

Q: And the A32_logFC (Degron-ID 6533, SEQ ID NO 178, 46L_47E_49P_50I_52G_53F_54Q_55C_67L)?
A: 3.157

Q: What about the A32_logFC (Degron-ID 6534, SEQ ID NO 39, 46L_47E_49P_50I_52G_53F_54R_55C_67L) of the same compound?
A: 3.621

Q: What about the A32_logFC (Degron-ID 6535, SEQ ID NO 42, 46L_47E_49P_50I_52G_53F_54S_55C_67L) of the same compound?
A: 3.615

Q: And the A32_logFC (Degron-ID 6615, SEQ ID NO 163, 46L_47I_49P_50I_52G_53F_54S_55C_67L)?
A: 3.185

Q: What about the A32_logFC (Degron-ID 6701, SEQ ID NO 44, 46L_47Q_49P_50I_52G_53F_54C_55C_67L) of the same compound?
A: 3.606

Q: What about the A32_logFC (Degron-ID 6704, SEQ ID NO 183, 46L_47Q_49P_50I_52G_53F_54F_55C_67L) of the same compound?
A: 3.135

Q: And the A32_logFC (Degron-ID 6705, SEQ ID NO 148, 46L_47Q_49P_50I_52G_53F_54G_55C_67L)?
A: 3.23

Q: And the A32_logFC (Degron-ID 6709, SEQ ID NO 150, 46L_47Q_49P_50I_52G_53F_54L_55C_67L)?
A: 3.228

Q: What about the A32_logFC (Degron-ID 6712, SEQ ID NO 188, 46L_47Q_49P_50I_52G_53F_54P_55C_67L) of the same compound?
A: 3.119

Q: And the A32_logFC (Degron-ID 6716, SEQ ID NO 31, 46L_47Q_49P_50I_52G_53F_54T_55C_67L)?
A: 3.661

Q: What about the A32_logFC (Degron-ID 6717, SEQ ID NO 15, 46L_47Q_49P_50I_52G_53F_54V_55C_67L) of the same compound?
A: 3.757

Q: And the A32_logFC (Degron-ID 6779, SEQ ID NO 145, 46L_47T_49P_50I_52G_53F_54Y_55C_67L)?
A: 3.236

Q: What about the A32_logFC (Degron-ID 6785, SEQ ID NO 165, 46L_47V_49P_50I_52G_53F_54G_55C_67L) of the same compound?
A: 3.183

Q: And the A32_logFC (Degron-ID 6793, SEQ ID NO 195, 46L_47V_49P_50I_52G_53F_54Q_55C_67L)?
A: 3.089

Q: And the A32_logFC (Degron-ID 6794, SEQ ID NO 160, 46L_47V_49P_50I_52G_53F_54R_55C_67L)?
A: 3.202

Q: And the A32_logFC (Degron-ID 6796, SEQ ID NO 154, 46L_47V_49P_50I_52G_53F_54T_55C_67L)?
A: 3.215

Q: What about the A32_logFC (Degron-ID 7674, SEQ ID NO 181, 46L_47E_49E_50I_52G_53F_54R_55C_67L) of the same compound?
A: 3.152

Q: What about the A32_logFC (Degron-ID 7755, SEQ ID NO 143, 46L_47I_49E_50I_52G_53F_54S_55C_67L) of the same compound?
A: 3.243

Q: What about the A32_logFC (Degron-ID 7756, SEQ ID NO 184, 46L_47I_49E_50I_52G_53F_54T_55C_67L) of the same compound?
A: 3.132

Q: What about the A32_logFC (Degron-ID 7841, SEQ ID NO 186, 46L_47Q_49E_50I_52G_53F_54C_55C_67L) of the same compound?
A: 3.127

Q: And the A32_logFC (Degron-ID 7847, SEQ ID NO 155, 46L_47Q_49E_50I_52G_53F_54I_55C_67L)?
A: 3.214

Q: And the A32_logFC (Degron-ID 7850, SEQ ID NO 169, 46L_47Q_49E_50I_52G_53F_54M_55C_67L)?
A: 3.171

Q: What about the A32_logFC (Degron-ID 7856, SEQ ID NO 35, 46L_47Q_49E_50I_52G_53F_54T_55C_67L) of the same compound?
A: 3.649

Q: And the A32_logFC (Degron-ID 7915, SEQ ID NO 161, 46L_47T_49E_50I_52G_53F_54S_55C_67L)?
A: 3.196

Q: What about the A32_logFC (Degron-ID 7916, SEQ ID NO 182, 46L_47T_49E_50I_52G_53F_54T_55C_67L) of the same compound?
A: 3.136

Q: What about the A32_logFC (Degron-ID 7920, SEQ ID NO 194, 46L_47V_49E_50I_52G_53F_54A_55C_67L) of the same compound?
A: 3.091

Q: And the A32_logFC (Degron-ID 7933, SEQ ID NO 185, 46L_47V_49E_50I_52G_53F_54Q_55C_67L)?
A: 3.132

Q: And the A32_logFC (Degron-ID 7936, SEQ ID NO 159, 46L_47V_49E_50I_52G_53F_54T_55C_67L)?
A: 3.205
